Hit rate of the full screen: of about 230,000 compounds, about 310 (0.13%) were called active. The inconclusive results got no clear call from the source; some entries with a clear call stand among them for comparison. Calls follow the shape of the dose curve; as a rule, active = well fitted activation curve with a large enough effect; inconclusive = small, poorly fitted or top-dose-only effect; inactive = no such curve, though single readings can be large or run the other way. Potencies beside an inconclusive call are fits to weak or partial responses and may not hold up.
Assay: qHTS Multiplex Assay to Identify Dual Action Probes in a Cell Model of Huntington: Cytoprotection (ATP); also: nearly all actives have a fitted effect of over 45% in size;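 as to cytoprotection (ATP increase): toxic huntingtin expression switched on by the ecdysone agonist tebufenozide; % of control where 0% means no effect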
Conditions: PC12 HTT-Q103 induced, ATP luminescence, 40 h; cytoprotection (ATP increase): at 56.4 µM (top of the series) unless noted
In short: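 Stable PC12 Q103-GFP cells in serum-supplemented, phenol red-free DMEM; induction by tebufenozide at 100 nM final; compound dose series; cell viability quantified luminescently from ATP.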
Potency is read from the fitted curve at half-maximal effect.

Row | Compound | Potency | cytoprotection (ATP increase)
1 | CCC1(CC)Cc2ccccc2C2=C(C(=O)N3CCCCC3)C(=O)C(=O)N21 | inconclusive: 7.9 nM [activator, full curve, poor fit] | 
2 | O=C1N2CCSC2=NC1(Nc1ccccn1)C(F)(F)F (stereo not given) | inactive | 
3 | COc1ccc(C(=O)C2CCCN(Cc3ccc(Sc4nncn4C)o3)C2)cc1F (stereo not given) | inconclusive: 398 nM [activator, partial curve] | 
4 | CCOC(=O)c1ccccc1NC(=O)CN(c1ccccc1C)S(C)(=O)=O | inconclusive: 1120 nM [activator, partial curve] | 
5 | O=C(NC(CSSCC(NC(=O)c1ccccc1)C(=O)O)C(=O)O)c1ccccc1 (stereo not given) | inconclusive: 6310 nM [activator, single point] | 
6 | OC1(c2cccs2)CN(c2ccccc2)C2=[N+]1CCCC2 (stereo not given) | inconclusive: 22400 nM [activator, single point] | 
7 | C(=N\n1cnnc1)/c1ccc(N2CCOCC2)cc1 | inconclusive: 1260 nM [activator, partial curve] | 
8 | O=C(CCc1ccccc1)NNC(=S)NC(=O)c1ccc(Cl)cc1 | inactive | 
9 | CCC1=C(OC(=O)N(CC)CC)N2C(=O)OC(=NCC(=O)OC)[C@]2(C)[C@H]2C1=CC[C@H]1C(=O)N(C)C(=O)[C@H]12 | inconclusive: 5620 nM [activator, single point] | 
10 | COc1cccc(NC(=S)N/N=C2\CC(C)(C)Oc3ccc(O)cc32)c1 | inconclusive: 5620 nM [activator, single point] | 
11 | CCN1C(=O)N[C@@H](c2cccc(C(F)(F)F)c2)C(C(=O)OC)=C1C | inconclusive: 794 nM [activator, single point] | 
12 | COc1ccc(C(=O)NNC(=O)CSc2nnc(COc3ccccc3OC)n2C)cc1 | inconclusive: 3550 nM [activator, single point] | 
13 | CCOC(=O)NC(=O)/C(C#N)=N\Nc1ccc(Cl)cc1 | inconclusive: 1260 nM [activator, single point] | 
14 | COc1cc(O)c(C(=O)c2ccccc2)cc1S(=O)(=O)O | inconclusive: 6310 nM [activator, single point] | 
15 | C=CCN(CC=C)C(=S)Nc1cc(Cl)ccc1OC | inconclusive: 17800 nM [activator, partial curve] | 
16 | CCCn1c(NC(=O)c2cccc(S(=O)(=O)N3CCCC3)c2)nc2ccccc21 |  | inactive: -1.25% [at 0.074 µM]
17 | CC(=O)c1nn(-c2cccc(Br)c2)cc1C(=O)c1ccco1 |  | inactive: 2.26% [at 10 µM]
18 | COc1ccccc1C(=O)NNC(=S)NC(=O)c1ccco1 | inconclusive: 3550 nM [activator, single point] | 
19 | O=C(COc1ccc([N+](=O)[O-])cc1)N/N=C/c1ccccn1 | inconclusive: 15800 nM [activator, single point] | 
20 | COc1ccc(OC)c(NC(=S)NCCN2CCOCC2)c1 | inconclusive: 89.1 nM [activator, partial curve, poor fit] | 
21 | Cc1ccc(N(Cc2ccccc2F)S(C)(=O)=O)c(C)c1 | inconclusive: 1580 nM [activator, partial curve] | 
22 | O=C(Nc1ccccc1C(F)(F)F)N1CCC(n2c(=O)[nH]c3ccccc32)CC1 | inconclusive: 3160 nM [activator, partial curve] | 

Row | Compound | Potency | cytoprotection (ATP increase)
23 | COc1ccc(N=N/C(=C\O)C(=O)c2cccs2)cc1 | inconclusive: 1120 nM [activator, single point] | 
24 | COc1ccc(CNc2ccc(Br)cc2)cc1 |  | inactive: 25.1% [at 10 µM]
25 | Oc1c(Br)cc(Br)cc1C=Nc1ccc2c(c1)OCO2 | inconclusive: 1260 nM [activator, single point] | 
26 | C/C(=N\NC(=O)c1ccccn1)c1ccc(C(=O)O)s1 |  | inactive: 20.4% [at 10 µM]
27 | C=Cc1c(C)c2cc3nc(cc4[nH]c(cc5nc(cc1[nH]2)C(C)=C5CCC(=O)O)c(CCC(=O)OC)c4C)[C@@]1(C)C3=CC=C(C(=O)OC)[C@H]1C(=O)OC (tested in a mixture with another compound) | inactive | 
28 | CN1CCN(c2ncnc3ccc(-c4cccnc4)cc23)CC1 | inactive | 
29 | CCCC(=O)N(c1ccc2oc(=O)sc2c1)S(=O)(=O)c1cccs1 | inconclusive: 14100 nM [activator, single point] | 
30 | Cc1nn(C)cc1/C=N\NC(=O)Cc1ccc([N+](=O)[O-])cc1 | inconclusive: 1260 nM [activator, single point] | 
31 | OCCC#Cc1ccc(CN2CCN(Cc3ccsc3)C(CCO)C2)cc1 (stereo not given) | inconclusive: 5620 nM [activator, single point] | 
32 | COC1=C(C(=O)c2ccccc2)C(=O)C2(CC=C(C)C)C[C@H](C(=O)OCC(F)(F)F)C(C)(C)[C@@]1(CC=C(C)C)C2=O (tested in a mixture with another compound) | inconclusive: 3160 nM [activator, single point] | 
33 | CC(NC(=O)OCc1ccccc1)C(=O)N1CC(O)CC1C(=O)O (stereo not given) | active: 100 nM | 
34 | CC(=O)c1ccc(NC(=O)OCCN2CCN(Cc3ccccc3)CCC2=O)cc1 | inactive | 
35 | Oc1[nH]c2ccc(Br)cc2c1N=NC(=S)NCC1CCCO1 (stereo not given) |  | inactive: -11% [at 10 µM]
36 | Cn1c(=O)c(-c2ccc(F)c(F)c2)nc2cncnc21 | inconclusive: 7.1 nM [activator, full curve, poor fit] | 
37 | O=C(Nc1nccs1)C1CCCCN1S(=O)(=O)c1ccccc1 (stereo not given) | inconclusive: 5620 nM [activator, single point] | 
38 | Cn1c(N)c(C(=O)COC(=O)c2ccccn2)c(=O)n(C)c1=O | inconclusive: 1260 nM [activator, single point] | 
39 | O=C(NCCc1c[nH]c2ccccc12)/C(=C\c1cccs1)NC(=O)c1ccccc1 | inconclusive: 1120 nM [activator, single point] | 
40 | COc1ccc(C(=O)N2CCC3(CCCN(c4ccccc4)C3)CC2)cc1 | inconclusive: 14100 nM [activator, single point] | 
41 | COc1ccc(NC(=O)c2cccc(Cn3cc(Br)c([N+](=O)[O-])n3)c2)c(C)c1 | inconclusive: 22400 nM [activator, partial curve] | 
42 | CN(C)/N=C/c1cn(-c2ccccc2)nc1-c1cccnc1 | inconclusive: 501 nM [activator, partial curve] | 
43 | Cc1cccc(-c2cc(=O)c3cc(C)ccc3o2)c1 | inconclusive: 794 nM [activator, single point] | 
44 | CCCCc1ccc(NC(=O)N[C@@H](C)C(=O)O)cc1 |  | inactive: 25.5% [at 10 µM]

Part of the list above in another layout:
Row	Compound	Potency	cytoprotection (ATP increase)
33	CC(NC(=O)OCc1ccccc1)C(=O)N1CC(O)CC1C(=O)O (stereo not given)	active: 100 nM	
39	O=C(NCCc1c[nH]c2ccccc12)/C(=C\c1cccs1)NC(=O)c1ccccc1	inconclusive: 1120 nM [activator, single point]	

Next part.

Row | Compound | Potency | cytoprotection (ATP increase)
45 | NNc1nc(-c2ccccc2Cl)nc2sc3c(c12)CCCC3 |  | inactive: 25.6% [at 10 µM]
46 | O=C(Nc1ccc(C(=O)N2CCCC2)cc1)Nc1ccc(Cl)cc1Cl | inconclusive: 5620 nM [activator, single point] | 
47 | O=C1[C@H]2CCn3c(=O)n(-c4ccccc4)c(=O)n3[C@H]2[C@H](O)[C@H]2O[C@@H]12 |  | inactive: 9.29% [at 10 µM]
48 | CC(=O)c1ccc(S(=O)(=O)Nc2ccc(-c3ccc4nnc(C)n4n3)cc2)cc1 | inconclusive: 14100 nM [activator, single point] | 
49 | CC(C)(C)C(=O)Cn1ncc(N2CCCC2)c(Br)c1=O | inactive | 
50 | Cc1csc(NC(=O)c2ccccc2O)n1 |  | inactive: -82.7% [at 0.074 µM]
51 | O=C(N/N=C/C(Cl)=C/c1ccccc1)c1ccncc1 | inconclusive: 794 nM [activator, single point] | 
52 | CCCN(CCC)C(=O)Cn1c(=O)n(CCCCC(=O)NC2CCCC2)c(=O)c2ccccc21 |  | inactive: 38.3% [at 10 µM]
53 | O=C(c1cccc(F)c1)N1CCC2(CCCN(Cc3nccs3)C2)CC1 | inconclusive: 11200 nM [activator, partial curve] | 
54 | OCC1(Cc2ccccc2)CCN(Cc2ccccn2)CC1 | inconclusive: 5620 nM [activator, single point] | 
55 | O=c1[nH]c(CN2CCN(S(=O)(=O)/C=C/c3ccccc3)CC2)nc2ccccc12 | inconclusive: 447 nM [activator, partial curve] | 
56 | CC(=O)[C@H]1CC[C@H]2C3CC=C4C[C@@H](O)CC[C@]4(C)C3CC[C@]12C (stereo not given in full) | inconclusive: 2510 nM [activator, full curve] | 
57 | CCCCc1ccc(C2C3=C(CC(C)(C)CC3=O)NC3=C2C(=O)c2ccccc23)cc1 (stereo not given) | inconclusive: 447 nM [activator, partial curve] | 
58 | CCC(C)(C)n1nnnc1CN1CCC(c2nc3ccc(C)cc3[nH]2)CC1 | inactive | 
59 | N=C(N)SCCc1ccc(OCc2ccc([N+](=O)[O-])cc2)cc1 | inconclusive: 12600 nM [activator, partial curve] | 
60 | NC(=O)C1c2ccccc2CCc2ccccc21 | inconclusive: 5620 nM [activator, partial curve, poor fit] | 
61 | CCC/C=C(\CCC)C(NP(=O)(c1ccccc1)c1ccccc1)c1ccc(C(F)(F)F)cc1 (stereo not given) | inactive | 
62 | CCC(=O)N1CCCc2cc(S(=O)(=O)N3CCN(c4ccccc4F)CC3)ccc21 | inactive | 
63 | c1ccc2oc(Cc3ccc(Cc4nc5ccccc5o4)cc3)nc2c1 | inconclusive: 2820 nM [activator, single point] | 
64 | Cc1cc(C)c2c(N)c(C(=O)NN3CC(=O)N(c4cccc(Cl)c4)CC3=O)sc2n1 |  | inactive: -0.434% [at 10 µM]
65 | NC1=NC(=O)/C(=C/c2cn(CCC(=O)O)nc2-c2ccc(F)cc2)S1 |  | inactive: 10.1% [at 10 µM]

3 structures already listed, ordered by heavy-atom count, ascending.
Row | Compound | Potency | cytoprotection (ATP increase)
50 | Cc1csc(NC(=O)c2ccccc2O)n1 |  | inactive: -82.7% [at 0.074 µM]
53 | O=C(c1cccc(F)c1)N1CCC2(CCCN(Cc3nccs3)C2)CC1 | inconclusive: 11200 nM [activator, partial curve] | 
48 | CC(=O)c1ccc(S(=O)(=O)Nc2ccc(-c3ccc4nnc(C)n4n3)cc2)cc1 | inconclusive: 14100 nM [activator, single point] | 

Source: PubChem BioAssay AID1471 (National Center for Advancing Translational Sciences (NCATS), 2008)
